Results reported in US20230143345A1, “PHARMACEUTICAL COMPOSITION FOR PREVENTION OR TREATMENT OF DISEASES CAUSED BY SARS-COV-2” (DONG WHA PHARM. CO., LTD., priority 2020, published 2023).
For at least one compound, name, drawing or mass did not settle the structure.

Test system: SARS-CoV-2
Assay type: cell-based
Details: concentration 6.25 uM; Vero cells, 24 h

Structure (SMILES): COc1cc2cc3c(c(-c4ccc5c(c4)OCO5)c2cc1OC)C(=O)OC3 [Justicidin-B, 9-benzo[1,3]dioxol-5-yl-6,7-dimethoxy-3H-naphtho[2,3-c]furanone]
- SARS-CoV-2 virus inhibitory ability (%, average ± standard deviation): 98:73 ± 2.07%
